Experimental data as given in patent US10159726B2, “Peptides, combination of peptides and scaffolds for use in immunotherapeutic treatment of various cancers” (Immatics Biotechnologies GmbH, priority 2015, dated 2018).

Experiments:
Design in all cases: species or system human
[1] = test system: source genes of selected peptides; test: Expression profiling of source genes by in-house RNAseq, tumor vs normal tissues (target coverage); settings: for Target coverage, over-expression of source gene, AML: AML (N = 7), over-expression = more than 1.5-fold higher expression on tumor vs highest-expressing relevant normal tissue; for Target coverage, over-expression of source gene, AML / Target coverage, over-expression of source gene, BRCA / Target coverage, over-expression of source gene, CLL / Target coverage, over-expression of source gene, CRC / Target coverage, over-expression of source gene, GB / Target coverage, over-expression of source gene, HCC / Target coverage, over-expression of source gene, OC / Target coverage, over-expression of source gene, OSCAR / Target coverage, over-expression of source gene, PC / Target coverage, over-expression of source gene, RCC / Target coverage, over-expression of source gene, SCLC / Target coverage, over-expression of source gene, pNSCLC: in-house RNASeq; for Target coverage, over-expression of source gene, BRCA: BRCA (N = 10); for Target coverage, over-expression of source gene, BRCA / Target coverage, over-expression of source gene, CLL / Target coverage, over-expression of source gene, CRC / Target coverage, over-expression of source gene, GB / Target coverage, over-expression of source gene, HCC / Target coverage, over-expression of source gene, OC / Target coverage, over-expression of source gene, OSCAR / Target coverage, over-expression of source gene, PC / Target coverage, over-expression of source gene, RCC / Target coverage, over-expression of source gene, SCLC / Target coverage, over-expression of source gene, pNSCLC: over-expression = more than 1.5-fold vs highest normal tissue; for Target coverage, over-expression of source gene, CLL: CLL (N = 10); for Target coverage, over-expression of source gene, CRC: CRC (N = 20); for Target coverage, over-expression of source gene, GB: GB (N = 24); for Target coverage, over-expression of source gene, HCC: HCC (N = 15); for Target coverage, over-expression of source gene, OC: OC (N = 12); for Target coverage, over-expression of source gene, OSCAR: OSCAR (N = 11); for Target coverage, over-expression of source gene, PC: PC (N = 26); for Target coverage, over-expression of source gene, RCC: RCC (N = 10); for Target coverage, over-expression of source gene, SCLC: SCLC (N = 10); for Target coverage, over-expression of source gene, pNSCLC: pNSCLC (N = 11)
[2] = test system: source genes of selected peptides; test: Target coverage of source genes in tumor entities based on TCGA Research Network data; settings: over-expressed = more than 2-fold above the highest 75% percentile of normal organs; for Target coverage, over-expression category of source gene, BLCA (N = 408): Bladder urothelial carcinoma; for Target coverage, over-expression category of source gene, CESC (N = 307): Cervical squamous cell carcinoma and endocervical adenocarcinoma; for Target coverage, over-expression category of source gene, HNSC (N = 521): Head and neck squamous cell carcinoma
[3] = test system: HLA-A*24 molecules of primary tumors; test: Identification and relative LC-MS quantitation of HLA-A*24 tumor-associated peptides presented on tissue samples (XPRESIDENT presentation profiles); settings: for Peptide Presentation on cancer entities: Table 9B: selected HLA-A*24 peptides, presentation on additional cancer entities

## 172: peptide found in MMP10 (gene looked up) (VFIFKGNEF; listed as Homo sapiens) [compound 172]
[1]
  Target coverage, over-expression of source gene, AML: I (<19% over-expression = I)
  Target coverage, over-expression of source gene, BRCA: I (<19% over-expression = I)
  Target coverage, over-expression of source gene, CLL: I (<19% over-expression = I)
  Target coverage, over-expression of source gene, CRC: I (<19% over-expression = I)
  Target coverage, over-expression of source gene, GB: I (<19% over-expression = I)
  Target coverage, over-expression of source gene, HCC: I (<19% over-expression = I)
  Target coverage, over-expression of source gene, OC: I (<19% over-expression = I)
  Target coverage, over-expression of source gene, OSCAR: II (20-49% = II)
  Target coverage, over-expression of source gene, PC: I (<19% over-expression = I)
  Target coverage, over-expression of source gene, RCC: I (<19% over-expression = I)
  Target coverage, over-expression of source gene, SCLC: I (<19% over-expression = I)
  Target coverage, over-expression of source gene, pNSCLC: II (20-49% = II)
[1]; gallbladder adenocarcinoma and cholangiocarcinoma, share of tumors with more than 1.5-fold higher expression than the highest-expressing relevant normal tissue, in-house RNAseq
  Target coverage for source genes of selected peptides, GBC_CCC (N = 10): I (<19% over-expression = I)
[1]; gastric cancer, share of tumors with more than 1.5-fold higher expression than the highest-expressing relevant normal tissue, in-house RNAseq
  Target coverage for source genes of selected peptides, GC (N = 11): I (<19% over-expression = I)
[1]; head and neck small cell carcinoma, share of tumors with more than 1.5-fold higher expression than the highest-expressing relevant normal tissue, in-house RNAseq
  Target coverage for source genes of selected peptides, HNSCC (N = 10): I (<19% over-expression = I)
[1]; melanoma, share of tumors with more than 1.5-fold higher expression than the highest-expressing relevant normal tissue, in-house RNAseq
  Target coverage for source genes of selected peptides, MEL (N = 10): I (<19% over-expression = I)
[1]; non-Hodgkin lymphoma, share of tumors with more than 1.5-fold higher expression than the highest-expressing relevant normal tissue, in-house RNAseq
  Target coverage for source genes of selected peptides, NHL (N = 10): I (<19% over-expression = I)
[1]; prostate cancer and benign prostate hyperplasia, share of tumors with more than 1.5-fold higher expression than the highest-expressing relevant normal tissue, in-house RNAseq
  Target coverage for source genes of selected peptides, PCA (n = 10): I (<19% over-expression = I)
[1]; urinary bladder cancer, share of tumors with more than 1.5-fold higher expression than the highest-expressing relevant normal tissue, in-house RNAseq
  Target coverage for source genes of selected peptides, UBC (N = 10): I (<19% over-expression = I)
[1]; uterine cancer, share of tumors with more than 1.5-fold higher expression than the highest-expressing relevant normal tissue, in-house RNAseq
  Target coverage for source genes of selected peptides, UTC (N = 10): I (<19% over-expression = I)
[2]
  Target coverage, over-expression category of source gene, BLCA (N = 408): C (>=5% of tumors above the cutoff, but <20%)
  Target coverage, over-expression category of source gene, CESC (N = 307): B (>=20% of tumors above the cutoff, but <50%)
  Target coverage, over-expression category of source gene, HNSC (N = 521): A (>=50% of tumors above the cutoff)
[3]
  Peptide Presentation on cancer entities: NSCLC

## 173: peptide found in MMP10 (gene looked up) (QYLEKYYNL; listed as Homo sapiens) [compound 173]
[1]
  Target coverage, over-expression of source gene, AML: I (<19% over-expression = I)
  Target coverage, over-expression of source gene, BRCA: I (<19% over-expression = I)
  Target coverage, over-expression of source gene, CLL: I (<19% over-expression = I)
  Target coverage, over-expression of source gene, CRC: I (<19% over-expression = I)
  Target coverage, over-expression of source gene, GB: I (<19% over-expression = I)
  Target coverage, over-expression of source gene, HCC: I (<19% over-expression = I)
  Target coverage, over-expression of source gene, OC: I (<19% over-expression = I)
  Target coverage, over-expression of source gene, OSCAR: II (20-49% = II)
  Target coverage, over-expression of source gene, PC: I (<19% over-expression = I)
  Target coverage, over-expression of source gene, RCC: I (<19% over-expression = I)
  Target coverage, over-expression of source gene, SCLC: I (<19% over-expression = I)
  Target coverage, over-expression of source gene, pNSCLC: II (20-49% = II)
[2]
  Target coverage, over-expression category of source gene, BLCA (N = 408): C (>=5% of tumors above the cutoff, but <20%)
  Target coverage, over-expression category of source gene, CESC (N = 307): B (>=20% of tumors above the cutoff, but <50%)
  Target coverage, over-expression category of source gene, HNSC (N = 521): A (>=50% of tumors above the cutoff)
[3]
  Peptide Presentation on cancer entities: NSCLC

## 174: peptide found in MMP13 (gene looked up) (VYEKNGYIYF; listed as Homo sapiens) [compound 174]
[1]
  Target coverage, over-expression of source gene, AML: I (<19% over-expression = I)
  Target coverage, over-expression of source gene, BRCA: II (20-49% = II)
  Target coverage, over-expression of source gene, CLL: I (<19% over-expression = I)
  Target coverage, over-expression of source gene, CRC: I (<19% over-expression = I)
  Target coverage, over-expression of source gene, GB: I (<19% over-expression = I)
  Target coverage, over-expression of source gene, HCC: I (<19% over-expression = I)
  Target coverage, over-expression of source gene, OC: I (<19% over-expression = I)
  Target coverage, over-expression of source gene, OSCAR: III (50-69% = III)
  Target coverage, over-expression of source gene, PC: I (<19% over-expression = I)
  Target coverage, over-expression of source gene, RCC: I (<19% over-expression = I)
  Target coverage, over-expression of source gene, SCLC: I (<19% over-expression = I)
  Target coverage, over-expression of source gene, pNSCLC: II (20-49% = II)
[2]
  Target coverage, over-expression category of source gene, BLCA (N = 408): B (>=20% of tumors above the cutoff, but <50%)
  Target coverage, over-expression category of source gene, CESC (N = 307): B (>=20% of tumors above the cutoff, but <50%)
  Target coverage, over-expression category of source gene, HNSC (N = 521): A (>=50% of tumors above the cutoff)
[2]; Lymphoid neoplasm diffuse large B-cell lymphoma
  Target coverage, over-expression category of source gene, DLBC (N = 48): C (>=5% of tumors above the cutoff, but <20%)
[2]; Mesothelioma
  Target coverage, over-expression category of source gene, MESO (N = 87): C (>=5% of tumors above the cutoff, but <20%)
[3]; Table 9A: selected HLA-A*24-binding tumor-associated peptides, cancer entities on which the peptide was found presented
  ENTITIES: NSCLC, GB

For some of these results: For expression read-outs the peptide stands for its source gene, whose mRNA was measured; the gene is not named for every peptide.
